# Data taken from PubChem BioAssay AID1347076 (National Center for Advancing Translational Sciences (NCATS), 2019).
# The whole screen tested about 400,000 compounds, of which about 13,000 (3.2%) were called active. The inconclusive results got no clear call from the source; some entries with a clear call stand among them for comparison. The call rests on the fitted dose curve; in most records, active means well fitted cell-killing curve with a large enough effect; inconclusive means small, poorly fitted or top-dose-only effect, or effect the other way; inactive means flat fitted curve, though single readings scatter. Where the call is inconclusive, the potency comes from a doubtful curve fit.
# Assay: qHTS assay for MDR1-selective chemotherapeutics: Primary screen using the drug-selected MDR subline cells KB-V1; further: nearly all actives have a fitted effect of over 60% in size
# Settings: KB-V1 MDR cells viability, CellTiter-Glo, 72 h; activity change, negative = cytotoxicity: at 46.1 µM (top of the series)
# Summary of the method: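 Cytotoxicity via CellTiter-Glo luminescence after 72 h compound exposure at 37 degrees C. Cells: drug-selected KB-V1 line, DMEM phenol-red free plus 10% FBS. Compounds tested at multiple concentrations; normalized data fitted to concentration-effect curves.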
# On the % scale 0 is the no-effect control and ±100 the full control effect; potency means the concentration at half of the fitted maximal effect.
Structure (SMILES),Potency,"activity change, negative = cytotoxicity"
O=C(NCc1ccco1)C1CCN(C(=O)c2cc3sccc3n2Cc2ccc(Cl)cc2)CC1,"inconclusive: 20.6 µM [cytotoxic, single point]",–
Cn1c(=O)cc(SCC(=O)Nc2ccc3c(c2)OCO3)c2ccccc21,"inconclusive: 14.6 µM [cytotoxic, partial curve]",–
COc1ccccc1CNS(=O)(=O)c1ccc(N2CCCC2)cc1Br,inactive,–
O=C(Cn1c2ccc(F)cc2c2nc3n(c(=O)c21)CCS3)Nc1ccc(Cl)cc1F,"inconclusive: 16.4 µM [cytotoxic, single point]",–
COCCSc1nc(N)c(NC(=O)c2ccco2)c(=O)[nH]1,–,inconclusive: 33.8%
CC(=O)Nc1ccccc1-c1nc2ccccc2n(C(C)C(=O)Nc2ccccc2C(F)(F)F)c1=O (stereo not given),inactive,–
O=C(C1CCCO1)N1CCN(c2c3c(nc4cc(-c5ccc(F)cc5)nn24)CCC3)CC1 (stereo not given),"inconclusive: 23.1 µM [cytotoxic, partial curve, poor fit]",–
NNC(=O)c1ccc(OCC2CC(c3ccc(Cl)cc3)=NO2)cc1 (stereo not given),"inconclusive: 16.4 µM [cytotoxic, partial curve]",–
O=[N+]([O-])c1cc(-c2nnc(C34CC5CC(CC(C5)C3)C4)o2)cc([N+](=O)[O-])c1,"inconclusive: 18.4 µM [cytotoxic, single point]",–
O=C(N/N=C/c1cc(Br)c(Br)o1)c1ccc2c(c1)OCCO2,"inconclusive: 20.6 µM [cytotoxic, single point]",–
Cc1ccc(CNC(=O)c2cc(=O)c3cc(C)ccc3o2)cc1,"inconclusive: 25.9 µM [rising, single point]",–
COc1ccc(/C=C/c2cc(C(F)(F)F)on2)cc1,inactive,–
CN1CCN(c2ncnc3c2cnn3-c2cccc(Cl)c2)CC1,"inconclusive: 0.0046 µM [rising, full curve, poor fit]",–
CCC(=O)c1ccc(OCC(=O)N(Cc2nnc(-c3ccccc3Cl)o2)C2CC2)cc1,"inconclusive: 2.59 µM [cytotoxic, full curve, poor fit]",–
O=C(N/C(=C\c1ccccc1)C(=O)N1CCCCC1)c1ccc(Br)o1,inactive,–
CC(C(=O)N1CCN(C)CC1)N1C(=O)c2ccccc2C1=O (stereo not given),"inconclusive: 23.1 µM [rising, partial curve, poor fit]",–
c1ccc(C2=Nn3c(nnc3-c3cc(-c4ccccc4)n[nH]3)SC2)cc1,"inconclusive: 29.1 µM [cytotoxic, single point]",–
CN(c1ccc(C(=O)Nc2ccc(Cl)cn2)cc1)S(=O)(=O)c1ccccc1,"inconclusive: 0.0058 µM [cytotoxic, full curve, poor fit]",–
Cn1c(=O)c2c(SCC(=O)NCCc3ccccc3)nc(C3CC3)nc2n(C)c1=O,inactive,–
CCc1nc2c(OCCC3CCCCC3)cccn2c1N(C)C(=O)COc1ccccc1,"inconclusive: 20.6 µM [cytotoxic, partial curve, poor fit]",–
c1ccc(-n2cc(CNCCc3cscn3)c(-c3ccc4c(c3)OCO4)n2)cc1,inactive,–
COc1ccc(C)cc1NC(=O)c1ccc(CN2CCN(c3ccccc3)CC2)cc1,active: 18.4 µM,–
O=C(Cc1cccc(NC(=O)C2CCN(C(=O)C3CCCCC3)CC2)c1)Nc1cccc(C(=O)N2CCCC2)c1,"inconclusive: 29.1 µM [rising, single point]",–
Cc1ccc(OCc2nc3c4c(ncn3n2)-c2ccccc2CC42CCCC2)cc1,"inconclusive: 13 µM [cytotoxic, partial curve, poor fit]",–

Structure (SMILES),Potency,"activity change, negative = cytotoxicity"
Cc1cccc(NCc2nc3ccccc3n2C)c1,"inconclusive: 18.4 µM [cytotoxic, single point]",–
Cc1ccc(-c2noc(CCCC(=O)NC3CCCCC3)n2)cc1,active: 16.4 µM,–
Cc1cc(Br)cn2c(Cc3ccccc3)c(-c3cccc(Br)c3)nc12,"inconclusive: 0.651 µM [cytotoxic, full curve, poor fit]",–
CC(C)CNC(=O)COC(=O)c1ccc(Cl)c(S(N)(=O)=O)c1,"inconclusive: 1.16 µM [rising, full curve]",–
CCc1nnc(NS(=O)(=O)c2ccc(N=Cc3c(C)[nH]n(-c4ccc(Cl)cc4)c3=O)cc2)s1,"inconclusive: 10.3 µM [cytotoxic, partial curve]",–
COc1cccc(CNC(=O)Cn2ncn3nc(-c4cccs4)cc3c2=O)c1,inactive,–
COC(=O)CSc1n[nH]c(=S)s1,inactive,–
COc1ccc(C(=O)NNC(=O)CCC(=O)Nc2ccc(C)cc2C)cc1,"inconclusive: 29.1 µM [rising, single point]",–
O=C(CCNS(=O)(=O)c1ccccc1)OCC(=O)c1ccc(Cl)cc1,"inconclusive: 20.6 µM [cytotoxic, single point]",–
O=C(Nc1cccc(-c2nc3cc(Cl)ccc3o2)c1)C1CCCO1 (stereo not given),"inconclusive: 29.1 µM [cytotoxic, single point]",–
CCOC(=O)Cn1nc(C)c(NC(=O)c2ccc(Cl)c([N+](=O)[O-])c2)c1C,inactive,–
Cc1cccc(N(C(=O)c2nsc(Cl)c2Cl)C(C(=O)NC2CCCC2)c2ccc(O)cc2)c1C (stereo not given),active: 20.6 µM,–
O=C(/C=C/c1ccc2c(c1)OCCO2)N1CCN(c2ccc(F)cc2)CC1,inactive,–
COC(=O)C(C(=O)OC)c1ccccc1NC(=O)OCc1ccccc1,"inconclusive: 29.1 µM [cytotoxic, single point]",–
O=C(NC(=S)NCC1CCCO1)c1cccc([N+](=O)[O-])c1 (stereo not given),"inconclusive: 23.1 µM [cytotoxic, single point]",–
O=C(Nc1ccccc1)Nc1cccc(C(F)(F)F)c1,inactive,–
O=C(Nc1ccc2c(c1)CCCN2C(=O)c1ccco1)c1cc([N+](=O)[O-])ccc1Cl,"inconclusive: 11.6 µM [cytotoxic, single point]",–
Cc1cc(C)c2cc(C)c3nnc(SCC(=O)NCc4ccc5c(c4)OCO5)n3c2c1,active: 2.31 µM,–
N#C/C(=C\c1ccc(-c2nc3ccccc3s2)o1)C(N)=O,inactive,–
CCOC(=O)C1=C(C)Nc2ccccc2N/C1=N\S(=O)(=O)c1cc(C(=O)O)ccc1Cl,"inconclusive: 29.1 µM [rising, single point]",–
O=C(Nc1ccc(NC(=S)NC(=O)C(c2ccccc2)c2ccccc2)cc1)c1ccccc1,"inconclusive: 16.4 µM [cytotoxic, single point]",–
O=C(Nc1ccc(Cl)c(Cl)c1)Nc1nccs1,active: 4.11 µM,–
Nc1c2c(nc3ccc(Br)cc13)N(Cc1ccccc1)CC2,inactive,–
Cc1cccc(NC(=O)C2CCN(C(=O)N3CCOc4ccccc43)CC2)c1C,inactive,–

# Entries of single compounds, quoted from the list.
# COC(=O)C(C(=O)OC)c1ccccc1NC(=O)OCc1ccccc1 is listed as Potency: inconclusive: 29.1 µM [cytotoxic, single point]
# O=C(Cc1cccc(NC(=O)C2CCN(C(=O)C3CCCCC3)CC2)c1)Nc1cccc(C(=O)N2CCCC2)c1 is listed as Potency: inconclusive: 29.1 µM [rising, single point]
# NNC(=O)c1ccc(OCC2CC(c3ccc(Cl)cc3)=NO2)cc1 (stereo not given) is listed as Potency: inconclusive: 16.4 µM [cytotoxic, partial curve]
# O=C(Nc1ccc2c(c1)CCCN2C(=O)c1ccco1)c1cc([N+](=O)[O-])ccc1Cl is listed as Potency: inconclusive: 11.6 µM [cytotoxic, single point]

# Further structures

Structure (SMILES),Potency,"activity change, negative = cytotoxicity"
COc1ccc(C(c2sc3ncnn3c2O)N2CCN(c3ccccc3F)CC2)cc1OC (stereo not given),active: 1.64 µM,–
OCCN(Cc1cccnc1)Cc1ccccn1,active: 10.3 µM,–
CCOC(=O)C1(CC2CCCCO2)CCN(Cc2nc(C(C)C)cs2)CC1 (stereo not given),"inconclusive: 0.92 µM [cytotoxic, full curve, poor fit]",–
O=C(NCCc1c[nH]c2ccccc12)c1ccc(F)cc1F,"inconclusive: 32.6 µM [cytotoxic, single point]",–
CCN(Cc1nc(-c2ccc(OC)c(OC)c2)no1)S(=O)(=O)c1ccc(OC)cc1,"inconclusive: 16.4 µM [cytotoxic, partial curve, poor fit]",–
Cc1ccc(C(=O)NCCSC2CCCCC2)cc1S(=O)(=O)Nc1ccccc1,"inconclusive: 18.4 µM [cytotoxic, single point]",–
COc1ccccc1CC(=O)N1CCCC1,inactive,–
CCOC(=O)c1c(S(=O)(=O)NCc2ccc(OC)cc2)c(C)n(C)c1C,"inconclusive: 9.2 µM [rising, partial curve, poor fit]",–
COc1cc(NC(=O)C2=C(N3CCOCC3)/C(=C\c3ccc(N(C)C)cc3)CCC2)cc(OC)c1OC,active: 2.59 µM,–
Cc1cccc(C)c1NC(=O)C1CCCN1S(=O)(=O)c1ccc2c(c1)n(C)c(=O)c(=O)n2C (stereo not given),inactive,–
COC(=O)C[C@@H]1CC[C@H](NS(=O)(=O)c2ccccc2F)[C@@H](CO)O1,inactive,–
COc1cccc(OC)c1C(=O)Oc1ccc2c(c1)O/C(=C\c1ccncc1)C2=O,"inconclusive: 29.1 µM [cytotoxic, single point]",–
COc1cc(-c2nc(S(=O)(=O)c3ccc(C)cc3)c(N3CCOCC3)o2)cc(OC)c1OC,"inconclusive: 0.411 µM [cytotoxic, full curve, poor fit]",–
COC(=O)c1ccc(NC(=O)C(=O)N2CCN(C(=S)Nc3ccc(OC)cc3)CC2)cc1,active: 20.6 µM,–
CCCC(C(=O)NC1CCCC1)N(CC1CCCO1)C(=O)c1snc(C(N)=O)c1N (stereo not given),active: 4.11 µM,–
O=C(c1cccc(S(=O)(=O)N2CCc3ccccc32)c1)N1CCN(c2ccccn2)CC1,"inconclusive: 6.51 µM [cytotoxic, full curve]",–
COc1ccc([C@H]2CC(=O)C[C@@H](CCn3nnc4ccccc43)O2)cc1,"inconclusive: 11.6 µM [cytotoxic, partial curve, poor fit]",–
O=C(CN(C(=O)CCC(=O)Nc1ccccn1)C1CCCC1)NCc1ccccc1,inactive,–
CC(=O)Nc1cc(NC(C)=O)cc(C(=O)N2CCCC3CCCCC32)c1 (stereo not given),inactive,–
CS(=O)(=O)N(CC(=O)N1CCCC1)Cc1ccc(Cl)cc1,"inconclusive: 7.31 µM [cytotoxic, partial curve]",–
CCN(CC)CCNC(=O)c1ccc(NC(=O)C2CCN(c3ncnc4sc(C)c(C)c34)CC2)cc1,inactive,–
COc1ccc(Cl)cc1NC(=O)CSc1nnc(CNC(=O)c2ccco2)o1,"inconclusive: 29.1 µM [rising, single point]",–
